According to paper doi:10.1101/2021.04.10.439283:
Results are given in words; binding and its absence hold for the method and conditions named. Some results given as binding are weak or reduced against the parent protein; the word gives no strength. Where a sequence is shown, tags or fusion partners need not be part of it.

Key:
Assay in all cases: two-hybrid
[1] = biological target: T1, Xrs2 fused to lexA-DBD (S. cerevisiae) (UniProt P33301)
T1 sequence: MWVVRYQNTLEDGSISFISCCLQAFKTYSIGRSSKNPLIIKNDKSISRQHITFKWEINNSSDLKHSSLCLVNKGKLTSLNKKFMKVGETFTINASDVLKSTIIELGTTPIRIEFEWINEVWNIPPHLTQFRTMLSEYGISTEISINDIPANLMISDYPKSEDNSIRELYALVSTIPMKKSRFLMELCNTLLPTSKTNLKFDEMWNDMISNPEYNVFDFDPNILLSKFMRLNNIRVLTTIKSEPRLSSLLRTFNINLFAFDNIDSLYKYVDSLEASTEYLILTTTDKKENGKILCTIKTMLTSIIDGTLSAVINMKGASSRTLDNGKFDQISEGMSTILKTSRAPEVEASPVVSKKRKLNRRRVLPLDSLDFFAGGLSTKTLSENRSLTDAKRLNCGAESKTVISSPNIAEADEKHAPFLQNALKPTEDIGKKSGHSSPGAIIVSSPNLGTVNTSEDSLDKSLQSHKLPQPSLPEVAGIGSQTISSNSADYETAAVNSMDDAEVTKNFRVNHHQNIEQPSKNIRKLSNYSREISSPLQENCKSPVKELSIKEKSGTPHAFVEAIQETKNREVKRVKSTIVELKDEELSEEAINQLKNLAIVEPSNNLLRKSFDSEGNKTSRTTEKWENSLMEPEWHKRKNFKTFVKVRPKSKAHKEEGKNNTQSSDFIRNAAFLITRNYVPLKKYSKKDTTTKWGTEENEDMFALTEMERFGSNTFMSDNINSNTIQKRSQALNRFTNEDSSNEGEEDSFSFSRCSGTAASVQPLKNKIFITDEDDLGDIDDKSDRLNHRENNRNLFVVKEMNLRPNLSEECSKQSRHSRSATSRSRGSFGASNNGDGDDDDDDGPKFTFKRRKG

[2] = biological target: T2, Mre11 fused to lexA-DBD (S. cerevisiae) (UniProt P32829)
T2 sequence: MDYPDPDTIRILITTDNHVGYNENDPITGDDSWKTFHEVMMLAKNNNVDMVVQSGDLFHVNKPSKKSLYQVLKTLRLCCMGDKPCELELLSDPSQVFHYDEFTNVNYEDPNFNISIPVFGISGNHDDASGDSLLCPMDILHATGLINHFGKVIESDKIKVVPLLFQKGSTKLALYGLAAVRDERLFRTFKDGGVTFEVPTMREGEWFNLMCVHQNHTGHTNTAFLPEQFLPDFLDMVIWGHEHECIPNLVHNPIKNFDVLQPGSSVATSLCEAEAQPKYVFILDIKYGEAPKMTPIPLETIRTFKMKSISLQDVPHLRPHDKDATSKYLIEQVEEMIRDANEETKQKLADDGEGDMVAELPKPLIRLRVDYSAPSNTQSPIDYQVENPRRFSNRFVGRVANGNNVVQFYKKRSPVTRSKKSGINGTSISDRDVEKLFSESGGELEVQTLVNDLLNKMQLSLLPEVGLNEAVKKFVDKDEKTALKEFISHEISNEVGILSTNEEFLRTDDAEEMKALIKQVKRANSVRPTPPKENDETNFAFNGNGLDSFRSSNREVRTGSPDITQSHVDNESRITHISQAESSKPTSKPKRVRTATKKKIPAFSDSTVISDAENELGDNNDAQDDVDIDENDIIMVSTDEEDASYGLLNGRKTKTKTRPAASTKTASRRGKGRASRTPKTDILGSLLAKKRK

[3] = biological target: T3, Dna2-N terminal domain (1-450 aa) fused to lexA-DBD (S. cerevisiae) (UniProt P38859)
T3 sequence: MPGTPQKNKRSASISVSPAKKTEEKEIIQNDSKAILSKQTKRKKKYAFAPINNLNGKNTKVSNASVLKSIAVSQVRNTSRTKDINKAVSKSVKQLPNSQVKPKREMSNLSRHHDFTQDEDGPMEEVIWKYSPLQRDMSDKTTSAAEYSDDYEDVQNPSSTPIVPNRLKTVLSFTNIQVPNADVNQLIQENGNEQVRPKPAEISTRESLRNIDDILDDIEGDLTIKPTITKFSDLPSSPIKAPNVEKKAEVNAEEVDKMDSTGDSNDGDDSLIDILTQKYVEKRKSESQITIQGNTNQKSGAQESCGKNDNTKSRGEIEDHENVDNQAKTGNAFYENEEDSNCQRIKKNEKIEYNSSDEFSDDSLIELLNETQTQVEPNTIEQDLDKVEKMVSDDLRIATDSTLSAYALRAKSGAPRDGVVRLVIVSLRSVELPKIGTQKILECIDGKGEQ

Measured: binding

B1: Sae2 fused to HA-AD (protein, UniProt P46946 1-345)
chain: MVTGEENVYLKSSLSILKELSLDELLNVQYDVTTLIAKRVQALQNRNKCVLEEPNSKLAEILCHEKNAPQQSSQTSAGPGEQDSEDFILTQFDEDIKKESAEVHYRNENKHTVQLPLVTMPPNRHKRKISEFSSPLNGLNNLSDLEDCSDTVIHEKDNDKENKTRKLLGIELENPESTSPNLYKNVKDNFLFDFNTNPLTKRAWILEDFRPNEDIAPVKRGRRKLERFYAQVGKPEDSKHRSLSVVIESQNSDYEFAFDNLRNRSKSPPGFGRLDFPSTQEGNEDKKKSQEIIRRKTKYRFLMASNNKIPPYEREYVFKREQLNQIVDDGCFFWSDKLLQIYARC
binds: all assays above
